The exact form of at least one protein or probe is not confirmed. For part of these data: At least one verdict rests on a figure or table, not on a statement of the authors.
Assays:
[1] = target: CsrA-His6 (Escherichia coli) (UniProt P69913); experiment: competition with a labelled probe; conditions: EMSA: 0.1 nM RNA, 10 mM MgCl2, 100 mM KCl, 32.5 ng yeast RNA, 20 mM DTT, 7.5% glycerol, 4 U SUPERasin, 30 min 37 C (pH not given), recombinant protein, protein details: His6 (C-terminal by name), label: 5'-32P, letters put together from the description
[2] = target: CsrA-His6 (Escherichia coli) (UniProt P69913); experiment: EMSA; conditions: EMSA: 0.1 nM RNA, 10 mM MgCl2, 100 mM KCl, 32.5 ng yeast RNA, 20 mM DTT, 7.5% glycerol, 4 U SUPERasin, 30 min 37 C (pH not given); recombinant protein; protein details: His6 (C-terminal by name); label: 5'-32P; letters put together from the description

Protein sequences, listed by entry. Tags and fused reporters are not part of them. Lines headed by an entry give the natural chain unless they say otherwise; changes in a name come on top.
UniProt P69913: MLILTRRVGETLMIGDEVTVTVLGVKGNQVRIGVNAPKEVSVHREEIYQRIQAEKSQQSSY

## GGGCGGUGGUUAACACUACCGCUUCGUUGUCUGGACAAUCGUUCCUUUGUAAUAGGUCCGAAUCACAAUGGAAGGUUCAAGAAUGAAAUACCGCAUCGCUUUAGCUGUU [yqjC leader WT]
[1]; unlabeled self vs labeled yqjC
  binding result: binds

## GGGUUUUACGCAAAUGGAGAACGAGAAUGUCUAAUCAG [elaB leader WT]
[1]; unlabeled self vs labeled elaB
  binding result: binds

## GGGCGGUGGUUAACACUACCGCUUCGUUGUCUGGACAAUCGUUCCUUUGUAAUAGGUCCGAAUCACAAUAAAAGGUUCAAGAAUGAAAUACCGCAUCGCUUUAGCUGUU [yqjC leader GGA2 mutant (GGA to AAA)]
[2]
  Kd: > 600 nM

Source: PMC10746276
